Reference: patent US10188754B2, “Compositions and methods for chemical exchange saturation transfer (CEST) based magnetic resonance imaging (MRI)” (THE JOHNS HOPKINS UNIVERSITY, priority 2013, dated 2019)
Marks after values point to notes of the source that are not given here.

Assay: not given
Format: physicochemical
Settings: at 9.3 ppm, ω1=7.2 μT, pH 7.3-7.4

Row | Compound | CEST contrast [%]
1 | O=C(O)c1ccccc1O [Compound 1, salicylic acid] | 4

Assay: not given
Format: physicochemical
Settings: Table 1; 10 mM, pH 7.3-7.4, tsat = 3 sec, ω1 = 3.6 μT, 37° C.

Row | Compound | Contrast (%)
2 | O=C(O)c1ccccc1O [Compound 1, salicylic acid] | 6.8

Same assay, conditions: Table 2; 10 mM, pH 7.3-7.4, tsat = 3 sec, ω1 = 3.6 μT, 37° C.

Row | Compound | Contrast (%)
3 | O=C(O)c1ccc(C(=O)O)c(O)c1 [Compound 18] | 6.7
4 | O=C(O)c1ccc([N+](=O)[O-])cc1O [Compound 19, 2-hydroxy-4-nitrobenzoic acid] | 6.7
5 | Nc1ccc(C(=O)O)c(O)c1 [Compound 17] | 6.6
6 | O=C(O)c1ccc(O)cc1O [Compound 16] | 7.2
7 | O=C(O)c1cc([N+](=O)[O-])ccc1O [Compound 14, 5-nitrosalicylic acid] | 3.1

Same assay, conditions: Table 3; 10 mM, pH 7.3-7.4, tsat = 3 sec, ω1 = 3.6 μT, 37° C.

Row | Compound | Contrast (%)
8 | O=C(O)c1c(O)ccc2ccccc12 [Compound 20, 2-hydroxy-l-naphthoic acid] | 3.4
9 | COc1cccc(O)c1C(=O)O [Compound 21, 6-methoxysalicylic acid] | 3.2
10 | O=C(O)c1c(O)cccc1O [Compound 22, 2,6-dihydroxybenzoic acid] | 0.4

Same assay, conditions: Table 4; 10 mM, pH 7.3-7.4, tsat = 3 sec, ω1 = 3.6 μT, 37° C.

Row | Compound | Contrast (%)
11 | Cc1cccc(C(=O)O)c1O [Compound 23, 3-Methylsalicylic acid] | 6.2^ %
12 | O=C(O)c1ccc2cccnc2c1O [Compound 30, 8-hydroxy-7-quinolinecarboxylic acid] | 6.4^ %
13 | O=C(O)c1cc(Br)cc(Br)c1O [Compound 27, 3,5-Dibromosalicylic acid] | 9.1^ %
14 | COc1cccc(C(=O)O)c1O [Compound 32, 3-methoxysalicylic acid] | 6.5^ %
15 | O=C(O)c1cccc(C(=O)O)c1O [Compound 35, 2-hydroxyisophthalic acid] | 3.9^ %
16 | O=C(O)c1cccc([N+](=O)[O-])c1O [Compound 36, 3-nitrosalicylic acid] | 5.4^ %
17 | O=C(O)c1cc(Cl)cc(Cl)c1O [Compound 26] | 6.7^ %
18 | O=C(O)c1cccc(F)c1O [Compound 25] | 7.4^ %
19 | O=C(O)c1cc(I)cc(I)c1O [Compound 28] | 5.3^ %
20 | O=Cc1cccc(C(=O)O)c1O [Compound 34, 3-Formylsalicylic acid] | 7.7^ %
21 | O=C(O)c1cccc(O)c1O [Compound 31, 2,3-dihydroxybenzoic acid] | 5.3^ %
22 | Nc1cccc(C(=O)O)c1O [Compound 33, 3-aminosalicylic acid] | 6.3^ %
23 | O=C(O)c1ccc2ccccc2c1O [Compound 29, 1-Hydroxy-2-naphthoic acid] | 3.4^ %

Same assay, conditions: Table 4; 20 mM was used because of the low contrast; pH 7.3-7.4, tsat = 3 sec, ω1 = 3.6 μT, 37° C.

Row | Compound | Contrast (%)
24 | CC(C)(C)c1cc(C(=O)O)c(O)c(C(C)(C)C)c1 [Compound 24, 3,5-di-tert-butylsalicylic acid] | 1.5^a %

Same assay, conditions: Table 5; 10 mM, pH 7.3-7.4, tsat = 3 sec, ω1 = 3.6 μT, 37° C.

Row | Compound | Contrast (%)
25 | CS(=O)(=O)Nc1ccc(N)cc1C(=O)O [Compound 38] | 8.4
26 | O=C(O)c1ccccc1NC(=O)C(F)(F)F [Compound 41] | 3.5
27 | Cc1ccc(S(=O)(=O)Nc2ccccc2C(=O)O)cc1 [Compound 40] | 6.8
28 | O=C(O)c1ccccc1Nc1ccccc1 [Compound 37] | 7.4
29 | CS(=O)(=O)Nc1ccccc1C(=O)O [Compound 39] | 7.7

Same assay, conditions: Table 6; 10 mM, pH 7.3-7.4, tsat = 3 sec, ω1 = 3.6 μT, 37° C.

Row | Compound | Contrast (% at 3.6 uT) [%]
30 | O=C(O)c1cc(O)c(C(=O)O)cc1O [Compound 42] | 17.1
31 | O=C(O)c1cc2ccccc2c(Cc2c(O)c(C(=O)O)cc3ccccc23)c1O [Compound 44, Pamoic acid] | 5.7
32 | O=C(O)c1cc(C(=O)O)c(O)cc1O [Compound 43, 4,6-dihydroxyisophthalic acid] | 13.0

Same assay, conditions: using 8 μT on 17/0.6 T scanner

Row | Compound | contrast, % higher than salicylic acid [%]
33 | O=C(O)c1cc(O)c(C(=O)O)cc1O [Compound 42] | ≤ 300

Assay: CEST experiments on 3.0 T human MRI scanner, detection limit of 42
Settings: 0.2 mM, using 8 μT

Row | Compound | CEST contrast at the detection limit
34 | O=C(O)c1cc(O)c(C(=O)O)cc1O [Compound 42] | around 0.5%

Same assay, conditions: 2.1 μT on the 3 T scanners

Row | Compound | contrast, % higher than salicylic acid
35 | O=C(O)c1cc(O)c(C(=O)O)cc1O [Compound 42] | approximately 60%

Same assay, conditions: 3 T, 0.5 mM, 2.1 μT, at 8.5 ppm

Row | Compound | CEST contrast [%]
36 | O=C(O)c1cc(O)c(C(=O)O)cc1O [Compound 42] | 0.6

Same assay, conditions: clinically useful field strengths

Row | Compound | lowest detectable concentration [µM]
37 | O=C(O)c1cc(O)c(C(=O)O)cc1O [Compound 42] | 200

Same assay, conditions: using 8 μT

Row | Compound | detection limit [mM]
38 | O=C(O)c1cc(O)c(C(=O)O)cc1O [Compound 42] | 0.2

Assay: Screening of beta-hydroxy carboxylate analogs for CEST contrast (Table 4A)
Settings: Concentration 5 mM

Row | Compound | Contrast (%)
39 | Cc1ccc(Cl)c(Nc2ccccc2C(=O)O)c1Cl [Entry 51] | 1
40 | Cc1cccc(Nc2ccccc2C(=O)O)c1Cl [Entry 53] | 0
41 | Cc1cccc(Nc2ccccc2C(=O)O)c1C [Entry 52] | 0

Same assay, conditions: Concentration 10 mM

Row | Compound | Contrast (%)
42 | O=C(O)c1ccccc1Nc1cccc(C(F)(F)F)c1 [Entry 50] | 5
43 | O=C(O)c1cccc(O)c1O [Entry 36] | 5.3
44 | Oc1ccccc1-c1nnn[nH]1 [Entry 13] | 0
45 | O/N=C/c1ccccc1O [Entry 10] | 0
46 | [O-][n+]1cccc2cccc(O)c21 [Entry 8] | 0.7
47 | O=C(O)c1ccc(O)cc1O [Entry 21] | 7.2
48 | O=C(O)c1cc(Cl)ccc1O [Entry 17] | 6.2
49 | O=C(O)c1c(O)cccc1O [Entry 27] | 0.4
50 | O=C(O)c1ccccc1O [Entry 1] | 6.8
51 | O=C(O)c1c(O)ccc2ccccc12 [Entry 25] | 3.4
52 | COC(=O)c1ccc(O)c([N+](=O)[O-])c1 [Entry 7] | 0
53 | COc1cccc(C(=O)O)c1O [Entry 37] | 6.5
54 | O=C(O)c1cc(Cl)cc(Cl)c1O [Entry 31] | 6.7
55 | Nc1ccc(C(=O)O)c(O)c1 [Entry 22] | 6.6
56 | O=C(O)c1cc(O)ccc1O [Entry 15] | 7.7
57 | O=Cc1cccc(C(=O)O)c1O [Entry 39] | 7.7
58 | O=C(O)c1cc([N+](=O)[O-])cc([N+](=O)[O-])c1O [Entry 20] | 0
59 | Cc1cccc(C(=O)O)c1O [Entry 28] | 6.2
60 | O=C(O)c1ccccc1Nc1ccccc1 [Entry 49] | 7.4
61 | O=C(O)c1ccc2cccnc2c1O [Entry 35] | 6.4
62 | O=C(O)c1ccc2ccccc2c1O [Entry 34] | 3.4
63 | O=C(O)c1cc2ccccc2c(Cc2c(O)c(C(=O)O)cc3ccccc23)c1O [Entry 44] | 5.7
64 | O=C(O)c1ccc([N+](=O)[O-])cc1O [Entry 24] | 6.7

Row | Compound | Contrast (%)
65 | O=C(O)c1cccc(F)c1O [Entry 30] | 7.4
66 | COc1cccc(O)c1C(=O)O [Entry 26] | 3.2
67 | COC(=O)c1ccccc1O [Entry 4] | 0
68 | O=C(O)c1ccc(C(=O)O)c(O)c1 [Entry 23] | 6.7
69 | O=C(O)c1cccc(C(=O)O)c1O [Entry 40] | 3.9
70 | O=C(O)c1cc(Br)cc(Br)c1O [Entry 32] | 9.1
71 | O=[N+]([O-])c1ccccc1O [Entry 6] | 0
72 | O=C(O)c1ccccc1NC(=O)C(F)(F)F [Entry 57] | 3.5
73 | COC(=O)c1cc([N+](=O)[O-])ccc1O [Entry 5] | 0
74 | O=C(O)c1cc(C(=O)O)c(O)cc1O [Entry 43] | 13.0
75 | O=C(O)c1cc([N+](=O)[O-])ccc1O [Entry 19] | 3.1
76 | O=C(O)c1cc(I)cc(I)c1O [Entry 33] | 5.3
77 | O=C(O)c1cccc([N+](=O)[O-])c1O [Entry 41] | 5.4
78 | Nc1cccc(C(=O)O)c1O [Entry 38] | 6.3
79 | O=Cc1cc(C(=O)O)ccc1O [Entry 9] | 0
80 | O=C(O)CNC(=O)c1ccccc1O [Entry 3] | 0
81 | O=C(O)c1ccc(O)c(/C=N/CC/N=C/c2cc(C(=O)O)ccc2O)c1 [Entry 11] | 1.7
82 | O=C(O)c1cccnc1Nc1cccc(C(F)(F)F)c1 [Entry 54] | 0
83 | O=C(O)c1cc(O)c(C(=O)O)cc1O [Entry 42] | 17.1
84 | CS(=O)(=O)Nc1ccccc1C(=O)O [Entry 58] | 7.7
85 | Cc1ccc(S(=O)(=O)Nc2ccccc2C(=O)O)cc1 [Entry 62] | 6.8
86 | CS(=O)(=O)Nc1ccc(N)cc1C(=O)O [Entry 61] | 8.4

Same assay, conditions: Concentration 25 mM

Row | Compound | Contrast (%)
87 | O=C(O)c1cc(/N=N\c2ccc(S(=O)(=O)Nc3ccccn3)cc2)ccc1O [Entry 46] | 20
88 | CS(=O)(=O)Nc1ccc(Cl)cc1C(=O)O [Entry 59] | 20
89 | O=C(O)c1ccccc1NS(=O)(=O)C(F)(F)F [Entry 63] | 0
90 | Cc1ccc(NS(C)(=O)=O)c(C(=O)O)c1 [Entry 60] | 15
91 | O=C(O)c1ccccc1N/N=C\c1ccccc1 [Entry 64] | 0
92 | O=C(O)c1ccc(-c2ccc(F)cc2F)cc1O [Entry 45] | 19.0
93 | CNc1ccccc1C(=O)O [Entry 48] | 0
94 | Nc1ccccc1C(=O)O [Entry 47] | 0
95 | CC(=O)Nc1ccccc1C(=O)O [Entry 55] | 0
96 | CC(C)(C)OC(=O)Nc1ccccc1C(=O)O [Entry 56] | 0
